This is an account of results in doi:10.1101/2024.08.19.608690.

This assay concerns the target T1, GST-SH2-SHC1 (UniProt P29353).
T1 sequence: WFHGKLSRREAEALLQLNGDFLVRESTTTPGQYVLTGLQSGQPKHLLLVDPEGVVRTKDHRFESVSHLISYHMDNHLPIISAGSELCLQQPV
Kind of assay: pull-down.

These are yes or no findings as the source states them, for the method shown. Binding seen in cells or lysates may run through a third protein. Tags and fused reporters may be left off the sequences shown.

On to “N-terminus deleted IGPR-1 (human) (domain or fragment)”, for which the binding result is given as “no binding”.
